No constants are given. Whether binding was seen depends on the method and setting. In cells and extracts the contact can be indirect. Some results given as binding are weak or reduced against the parent protein; the word gives no strength.
Biological target: T1, RUFY3 protein (human (all cell lines of the paper are human; the line of the co-IP is not stated)) (UniProt Q7L099)
T1 sequence: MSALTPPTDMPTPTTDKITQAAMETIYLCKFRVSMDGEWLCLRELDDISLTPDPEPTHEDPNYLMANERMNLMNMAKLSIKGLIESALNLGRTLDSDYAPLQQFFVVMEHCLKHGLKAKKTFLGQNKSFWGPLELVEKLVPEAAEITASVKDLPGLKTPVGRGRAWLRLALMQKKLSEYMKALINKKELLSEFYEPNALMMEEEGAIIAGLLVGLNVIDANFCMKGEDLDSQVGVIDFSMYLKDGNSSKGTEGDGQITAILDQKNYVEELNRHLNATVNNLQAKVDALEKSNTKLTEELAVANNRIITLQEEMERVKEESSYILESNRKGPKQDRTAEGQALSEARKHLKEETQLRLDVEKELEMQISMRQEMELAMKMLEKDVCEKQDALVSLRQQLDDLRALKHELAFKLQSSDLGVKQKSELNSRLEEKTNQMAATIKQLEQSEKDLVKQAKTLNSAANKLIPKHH
Test: co-IP; Co-IP kit (BersinBio Bes3011); antibody (5 ug) mixed with cell lysates, 4 °C overnight, then protein A/G magnetic beads 3 h at room temperature; eluate analysed by Western blot; cell line not stated

Sequences of proteins named here, by UniProt entry; tags and fusion partners are left off.
UniProt P62258: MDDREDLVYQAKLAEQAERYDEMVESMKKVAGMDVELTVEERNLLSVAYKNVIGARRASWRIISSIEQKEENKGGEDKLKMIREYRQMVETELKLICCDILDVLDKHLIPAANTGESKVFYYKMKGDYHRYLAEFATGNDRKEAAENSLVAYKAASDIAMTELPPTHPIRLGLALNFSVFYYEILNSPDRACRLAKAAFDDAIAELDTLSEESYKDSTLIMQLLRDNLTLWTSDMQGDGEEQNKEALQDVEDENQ

## YWHAE protein (from UniProt P62258 1-255)
  binding: binds

From paper PMC11197270
